Columns and labels:
[1] = general procedure: Fmoc solid-phase peptide synthesis; Rink-amide PEG-PS resin, Champion (Biosearch Technologies, 0.28 mmol/g); Rink-amide PS (0.47 mmol/g); Rink-amide PEG-AM; HATU/DIEA with HOBt; DIPC/HOAt for manual couplings; details: whole synthesis; for final HPLC purity: Acquity UPLC Waters, BEH300 C4, scale of the general procedure 150 μmol; for isolated yield: scale of the general procedure 150 μmol
[2] = Fmoc solid-phase peptide synthesis; MBHA polystyrene resin; HATU/DIEA with HOBt; DIPC/HOAt for manual couplings; details: whole synthesis, scale 0.15 mmol

Q: Which “final HPLC purity” value [1] does the source give for “His^1-D-Ser^2-Gln-Gly-Thr-Phe-Thr-Ser-Asp-Lys^10(γGlu-γGlu-C16)-Ser-Lys-Tyr-Leu-Glu^15-Ala^16-Arg-Ala-Ala-Gln-Asp-Phe^22-Val^23-Gln-Trp^25-Leu-Leu-Asp-Thr-CONH2” here?
A: >90% pure

Q: What about the isolated yield [1] of the same substance?
A: Yield 20%

Q: Which “final HPLC purity” value [1] does the source give for “His^1-D-Ser-Gln-Gly-Thr-tβP-Thr-Ser-Asp-Lys^10(γGlu-γGlu-C16)-Ser-Lys-Tyr-Leu-Asp^15-Glu^16-Arg-Ala-Ala-Gln-Asp-Phe^22-Val^23-Gln-Trp^25-Leu-Leu-Asp-Thr-CONH2” here?
A: >90% pure

Q: What about the isolated yield [1] of the same substance?
A: Yield 12%

Q: With “His^1-amino-1cyclobutane^2-Gln-Gly-Thr-Phe-Thr-Ser-Asp-Lys^10(γGlu-γGlu-C16)-Ser-Lys-Tyr-Leu-Asp^15-Glu^16-Arg-Ala-Ala-Gln-Asp-Phe^22-Val^23-Gln-Trp^25-Leu-Leu-Asp-Thr-CONH2” as the substance, how does the “final HPLC purity” value [1] read?
A: >90%

Q: What about the isolated yield [1] of the same substance?
A: 18%

Q: What does the source list for “Ac-His^1-Ala^2-Gln-Gly-Thr-Phe-Thr-Ser-Asp-Lys^10(γGlu-γGlu-C16)-Ser-Lys-Tyr-Leu-Asp^15-Glu^16-Arg-Ala-Ala-Gln-Asp-Phe^22-Val^23-Gln-Trp^25-Leu-Leu-Asp-Thr-CONH2”?
A: final HPLC purity [1]: >90% pure; isolated yield [1]: Yield 27%

Q: Which results are given for “His^1-Aib^2-Val-Gly-Thr-Phe-Thr-Ser-Asp-Lys^10(γGlu-γGlu-C16)-Ser-Lys-Tyr-Leu-Asp^15-Aib^16-Arg-Ala-Ala-Gln-Asp-Phe^22-Val^23-Gln-Trp^25-Leu-Nle-Asp-Thr-CONH2”?
A: final HPLC purity [1]: >90% pure; isolated yield [1]: Yield 20%

Q: Which “final HPLC purity” value [1] does the source give for “His^1-D-Ser^2-Gln-Gly-Thr-Phe-Thr-Ser-Asp-Lys^10(γGlu-γGlu-C16)-Ser-Lys-Tyr-Leu-Asp-Val-Arg-Ala-Ala-Gln-Asp-Phe^22-Val^23-Gln-Trp-Leu-Leu-Asp-Thr-CONH2” here?
A: >90% pure

Q: What about the isolated yield [1] of the same substance?
A: Yield 20%

Q: Which results are given for “His^1-D-Ser^2-Gln-Gly-Thr-Phe-Thr-Ser-Asp-Lys^10(γGlu-γGlu-C16)-Ser-Lys-Tyr-Leu-Asp^15-Glu^16-Arg-Ala-Ala-Gln-Asp-Phe^22-Val^23-Gln-Trp^25-Leu-Met2(O)-Asp-Thr-CONH2”?
A: final HPLC purity [1]: >90%; isolated yield [1]: 15%

Q: With “His^1-D-Ser^2-Gln-Gly-Thr-Phe-Thr-Ser-Asp-Lys^10(γGlu-C16)-Ser-Lys-Tyr-Leu-Asp-Ala-Arg-Ala-Ala-Gln-Asp-Phe^22-Val^23-Gln-Trp-Leu-Leu-Asp-Thr-CONH2” as the substance, how does the “final HPLC purity” value [1] read?
A: 95% pure

Q: And the isolated yield [1]?
A: Yield 21%

Q: For “His^1-D-Ser^2-Gln-Gly-Thr-Phe-Thr-Ser-Asp-Lys^10(γGlu-γGlu-C16)-Ser-Leu-Tyr-Leu-Asp-Glu^16-Arg-Ala^18-Ala-Gln-Asp-Phe^22-Val^23-Gln-Trp^25-Leu-Leu-Asp-Thr-NH2”, which isolated mass [2] is on record?
A: 15 mg

Q: Which “final HPLC purity” value [1] does the source give for “His^1-D-Ser^2-Gln-Gly-Thr-Phe-Thr-Ser-Asp-pAF^10(γGlu-γGlu-C16)-Ser-Lys-Tyr-Leu-Asp^15-Ala^16-Arg-Ala-Ala-Gln-Asp-Phe^22-Val^23-Gln-Trp^25-Leu-Leu-Asp-Thr-CONH2” here?
A: >90% pure

Q: What about the isolated yield [1] of the same substance?
A: Yield 10%

Q: With “HsQGTFTSDK(γEγEC16)SKYLDVRRAQDFVQWLLDT-NH2” as the substance, how does the “final HPLC purity” value [1] read?
A: 95% pure

Q: What about the isolated yield [1] of the same substance?
A: Yield 16%

Q: For “His^1-D-Ser^2-Gln-Gly-Thr-Phe-Thr-Ser-Asp-Lys^10(γGlu-γGlu-C16)-Ser-Lys-Tyr-Leu-Asp-Ala-Arg-Ala-Ala-Gln-Asp-Phe^22-Val^23-Gln-Trp-Leu-Leu-Asp-Thr-CONH2”, which “final HPLC purity” value [1] is on record?
A: 95% pure

Q: And the isolated yield [1]?
A: Yield 30%

Q: What does the source list for “HsQGTpFFTSDK(γEγEC16)SKYLDERAAQDFVQWLLDT-NH2”?
A: final HPLC purity [1]: above 90%; isolated yield [1]: 10%
